The assay can be described thus: IkB Signaling. As to conditions: ABC-DLBCL IkBa-CBG/CBR dual luciferase ratio (green luciferase fused to IkBa over red control in OCI-Ly3 lymphoma cells), 4 h. An outline of the steps:
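Curves were fitted separately to fusion (green), unfused (red) and ratio luminescence, then classed by r2, magnitude and activity. Cells: OCI-Ly3, 4 h compound plus doxycycline at 37C; 10 uM MG-132 defined full response.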

Where [1] appears, read: measured here: control luc red channel unless noted.

Some of the results follow. The main result of the screen is listed elsewhere. These columns were measured beside it and carry no call. The list favours compounds with an active or inconclusive main result. Words in brackets tell the shape of the fitted curve; partial curves, single points and poor fits give uncertain potencies.

For orientation: AC50 means the midpoint of the concentration-response curve, whichever way the signal moves. As to `CC(=O)N1c2ccc(S(=O)(=O)NCC3CCC(C(=O)Nc4ccc(F)cc4)CC3)cc2CC1C` (configuration not stated), under setting [1], the AC50 was 39.8 µM [falling, single point].
For `COc1ccc(CNC(=O)c2ccc3c(c2)CCN3S(=O)(=O)c2ccc(Cl)cc2)cc1`, the AC50 under setting [1] was 7.94 µM [falling, partial curve].
Consider `Cc1ccc(-c2nn3c(=O)cc(CN4CCN(S(=O)(=O)c5ccc(Cl)cc5)CC4)nc3s2)cc1`, for which the AC50 under setting [1] is 0.0501 µM [falling, full curve, poor fit].
Turning to `CC(NC(=O)C1=Cc2ccccc2OC1)c1ccccc1` (configuration not stated), under setting [1], the AC50 was 15.8 µM [falling, partial curve].
Same read-out and setting: in the case of `COc1ccc(-c2ccc(CCC(=O)O)n2NC(=O)c2cccs2)cc1` it was 2 µM [falling, full curve, poor fit]; in that of `CC(C)c1ccc(NC(=O)C(NS(=O)(=O)c2ccc3c(c2)CCC(=O)N3)c2ccccc2)cc1` (configuration not stated), 31.6 µM [falling, single point].
On the same count and under the same terms, with `CCOCN(C(=O)Cn1c(CC(C)C)nc2ccccc21)c1c(C)cccc1CC` the figure was 25.1 µM [falling, single point]; with `CCOc1ccccc1Nc1ncnc2c1c(-c1ccccc1)cn2-c1ccc(OC)cc1`, 12.6 µM [falling, partial curve]; with `O=C1c2[nH]nc(-c3ccccc3O)c2C(c2ccc(Cl)cc2)N1CCc1ccccc1` (configuration not stated), 3.16 µM [falling, full curve].
On the same count and under the same terms, with `CCOC(=O)/C(C#N)=C1/C=C(C)NC(c2ccccc2O)=N1` the figure was 6.31 µM [falling, full curve]; with `COc1cc(OC)cc(-c2cc3nc(C)c(CCC(=O)Nc4ccc(F)c(Cl)c4)c(C)n3n2)c1`, 1.58 µM [falling, full curve].
For the compound `Cn1ccnc1SCC(=O)Nc1ccc(Oc2ccccc2)cc1`, the AC50 under setting [1] was 15.8 µM [falling, single point].
Same read-out and setting: with `Cc1cc(C)cc(NC(=O)c2ncn(-c3ccccc3)n2)c1` the figure was 1.26 µM [falling, full curve].
In the case of `CN1CCN(c2ncc3nc(-c4cn(C)c5ccccc45)c(=O)n(Cc4cccs4)c3n2)CC1`, the AC50 runs as follows: (measured here: IkB-luc green channel) 6.31 µM [falling, single point]; (measured here: control luc red channel) 6.31 µM [falling, single point].
For the compound `COc1ccc2[nH]cc(CCNC(=O)c3cnn(-c4ccccc4Cl)c3C3CCN(C(=O)OC(C)(C)C)CC3)c2c1`, the AC50 under setting [1] was 15.8 µM [falling, partial curve].
For the compound `COc1ccc(-c2[nH]c(-c3cccc(OC)c3)nc2SCC(=O)NCc2ccco2)cc1`, the AC50 under setting [1] was 15.8 µM [falling, partial curve].
Same read-out and setting: with `CCOc1ccc(C(=O)Nc2ccc(-c3nc4ccccc4s3)c(C)c2)cc1OCC` the figure was 3.16 µM [rising, full curve].
Same read-out and setting: in the case of `Cc1cc2nc(-c3cccc(NC(=O)c4ccc(Br)o4)c3C)oc2cc1C` it was 3.16 µM [falling, full curve]; in that of `Cc1cccc(N2CCN(C(=O)c3ccc(NC(=O)c4nsc5ccccc45)cc3)CC2)c1C`, 0.2 µM [falling, full curve].
On the same count and under the same terms, in the case of `Cc1nc2c(C(=O)NCCc3ccccc3)c[nH]n2c(=O)c1Cc1ccc(F)cc1Cl` it was 6.31 µM [falling, partial curve].
For the compound `COc1ccc(CCNC(=O)c2c(C)nn(-c3ccc(F)cc3)c2-n2cccc2)c(OC)c1OC`, under setting [1], the AC50 was 15.8 µM [falling, partial curve].
Still for that read-out and setting: with `COc1ccc(-n2ncc(C(=O)Nc3ccc4c(c3)OCCO4)c2C2CCN(C(=O)OC(C)(C)C)CC2)cc1` the figure was 25.1 µM [falling, partial curve, poor fit]; with `O=C(NCCc1ccccc1)c1ccc2c(c1)CCN2S(=O)(=O)c1ccccc1`, 5.01 µM [rising, partial curve].
On the same count and under the same terms, with `CCOC(=O)c1c(NC(=O)C(C)Oc2ccc(Cl)c(C)c2)sc2c1CCCC2` (configuration not stated) the figure was 12.6 µM [falling, partial curve]; with `CCc1ccc(NC(=O)CCCn2nc(C)c3c(C)n(-c4ccccc4)nc3c2=O)cc1`, 12.6 µM [falling, partial curve].
Regarding `Cc1cccc(N2CCN(C(=O)c3ccc(N4CCCC4=O)cc3)CC2)c1C`, under setting [1], the AC50 was 31.6 µM [falling, partial curve].
On the same count and under the same terms, with `O=c1[nH]c(CS(=O)(=O)c2ccccc2)nc2ccccc12` the figure was 10 µM [falling, partial curve]; with `CCCSc1nnc2n(-c3ccc(OC)cc3)c(=O)c3c4c(sc3n12)COC(C(C)C)C4` (configuration not stated), 3.98 µM [falling, full curve]; with `CCOCCCNc1ncnc2c1[nH]c1ccccc12`, 20 µM [falling, partial curve].
For the compound `CCOc1ccc(CNC(=O)C2CCN(Cc3cc4ccccc4n3Cc3ccccc3C)CC2)cc1`, the AC50 under setting [1] was 3.98 µM [falling, partial curve, poor fit].
Still for that read-out and setting: in the case of `C[C@H]1C[C@@H]2[C@@H]([C@@H](O)C[C@@]3(C)[C@H]2CC[C@]3(O)C(=O)CO)[C@@]2(C)C=CC(=O)C=C12` it was 3.98 nM [rising, full curve] [measured here: IkB-luc green channel]; in that of `CC(=O)Nc1ccc2nc(SCCOc3ccccc3)sc2c1`, 3.98 µM [rising, partial curve].
Take `Cc1c(CNC2CCCCCC2)c(C(=O)O)c(C)n1Cc1ccc(F)cc1`: the AC50 under setting [1] was 25.1 µM [falling, single point].
On to `CCc1ccc(CN(Cc2ccco2)C(=O)COc2ccc(Cl)cc2C)cc1`, for which, under setting [1], the AC50 is 25.1 µM [falling, single point].
For `CCc1nc2c(cnn2-c2ccc(Cl)cc2)c(=O)n1-c1ccc(OC)c(Cl)c1`, the AC50 under setting [1] was 31.6 µM [falling, single point].
The same measure, in the same setting: with `O=C(CC1SC(=O)N(c2ccccc2)C1=O)Nc1ccccc1` (configuration not stated) the figure was 3.98 µM [falling, full curve, poor fit]; with `Cc1ccc2nc(N(Cc3cccnc3)C(=O)c3cccs3)sc2c1`, 0.316 µM [falling, full curve].
Regarding `CCOc1ccc(N2CC(c3nc4ccccc4n3Cc3cccc(C)c3)CC2=O)cc1` (configuration not stated), the AC50 under setting [1] is 31.6 µM [falling, single point].
In the case of `O=[N+]([O-])c1cc(-c2nc(-c3ccccc3)no2)ccc1NCCc1ccccc1`, the AC50 under setting [1] was 39.8 µM [falling, single point].
On the same count and under the same terms, with `COc1ccc(Cl)cc1NC(=O)CSc1nc(-c2ccccc2)c2ccccc2n1` the figure was 5.01 µM [falling, partial curve]; with `O=C(Nc1cccc(F)c1)[C@@H](c1ccccc1)N1Cc2ccccc2C1=O`, 25.1 µM [falling, partial curve]; with `COc1ccc(C)cc1NC(=O)C(CCSC)NS(=O)(=O)c1ccc2c(c1)oc(=O)n2C` (configuration not stated), 3.16 µM [rising, single point].
Same read-out and setting: in the case of `CCOC(=O)c1c(C)[nH]c(CCC(=O)Nc2ccc(N(CC)CC)cc2C)c1C` it was 31.6 µM [falling, single point]; in that of `CSCCC1NC2(C(=O)Nc3ccc(Cl)cc32)[C@@H]2C(=O)N(C3CCCC3)C(=O)[C@H]12` (some centres not stated), 12.6 µM [falling, partial curve].
On to `O=C(c1cccs1)N(Cc1ccco1)Cc1cc2ccccc2[nH]c1=O`, for which the AC50 under setting [1] is 2 µM [falling, full curve].
Still for that read-out and setting: in the case of `Brc1ccccc1-c1nnc(COc2ncnc3c2cnn3-c2ccccc2)o1` it was 39.8 µM [falling, partial curve]; in that of `COc1cccc(NC(=O)c2sc3nc(C)c(C(=O)Nc4ccc(C)cc4C)c(-c4ccc(Br)cc4)c3c2N)c1`, 6.31 µM [falling, partial curve].
Regarding `Cc1cc(Cl)ccc1NC(=O)C1CCN(S(=O)(=O)c2ccc3[nH]c(=O)ccc3c2)CC1`, under setting [1], the AC50 is 39.8 µM [rising, single point].
On the same count and under the same terms, with `COc1ccc(N2CCN(C(=O)c3cc4c(=O)n(Cc5cccs5)ccc4nc3C)CC2)cc1` the figure was 39.8 µM [falling, single point].
As to `O=C(CSc1nnc(-c2ccccc2F)o1)OCc1ccccc1`, under setting [1], the AC50 is 31.6 µM [falling, partial curve] [measured here: IkB-luc green channel].
Consider `Cc1ccc(CCNC(=O)CCSCc2ccccc2F)cc1`, for which the AC50 under setting [1] was 25.1 µM [falling, single point].
The same measure, in the same setting: with `N#Cc1ccc(COc2ccc(CCO)cc2-n2nc3ccccc3n2)cc1` the figure was 31.6 µM [falling, single point].
As for `O=C(CCOc1ccccc1)N(Cc1cccnc1)c1nc2c(Cl)cccc2s1`, the AC50 under setting [1] was 10 µM [falling, single point].
Still for that read-out and setting: in the case of `Cc1cc(NC(=O)c2ccc(Cl)c(Cl)c2)ccc1-c1cc2ccccc2oc1=O` it was 0.316 µM [falling, full curve, poor fit].
Still for that read-out and setting: in the case of `Oc1cccc(Nc2nc(-c3ccccc3)nc3ccccc23)c1` it was 15.8 µM [falling, partial curve].
The same measure, in the same setting: with `CCN(CCCNC(=O)c1cc2cc3cc(OC)ccc3nc2s1)c1ccccc1` the figure was 12.6 µM [falling, partial curve]; with `Cn1cc(C(=O)c2ccccc2)cc1-c1nc2ccccc2n1C`, 12.6 µM [falling, partial curve]; with `O=C(CSC1=Nc2ccccc2C2=NC(CCC(=O)NC3CCCCC3)C(=O)N12)Nc1cccc(Cl)c1` (configuration not stated), 25.1 µM [falling, partial curve].
Take `Cc1sc2nc(C(C)Nc3ccccc3N3CCOCC3)[nH]c(=O)c2c1C` (configuration not stated): the AC50 under setting [1] was 15.8 µM [falling, partial curve].
As to `Cc1nn(-c2ccccc2)c(Cl)c1C(=O)Nc1nnc(C2CCCC2)s1`, under setting [1], the AC50 was 25.1 µM [falling, partial curve].
Same read-out and setting: with `Cn1c(=O)c2c(SCC(=O)NCC3CCCO3)nc(-c3ccccc3F)nc2n(C)c1=O` (configuration not stated) the figure was 0.794 µM [falling, partial curve, poor fit].

The values are drawn from PubChem BioAssay AID445 (National Center for Advancing Translational Sciences (NCATS), 2006).
